Measured values as given in PMC11967755.
These are yes or no findings as the source states them, for the method shown. Binding seen in cells or lysates may run through a third protein. Some entries that bind do so weakly or less than the wild type. For some of these results: Sequences can lack the tags named with a protein. One block for each molecule: values may come before it.

Chains of the proteins cited; added tags and fusions are not shown.
UniProt Q14318: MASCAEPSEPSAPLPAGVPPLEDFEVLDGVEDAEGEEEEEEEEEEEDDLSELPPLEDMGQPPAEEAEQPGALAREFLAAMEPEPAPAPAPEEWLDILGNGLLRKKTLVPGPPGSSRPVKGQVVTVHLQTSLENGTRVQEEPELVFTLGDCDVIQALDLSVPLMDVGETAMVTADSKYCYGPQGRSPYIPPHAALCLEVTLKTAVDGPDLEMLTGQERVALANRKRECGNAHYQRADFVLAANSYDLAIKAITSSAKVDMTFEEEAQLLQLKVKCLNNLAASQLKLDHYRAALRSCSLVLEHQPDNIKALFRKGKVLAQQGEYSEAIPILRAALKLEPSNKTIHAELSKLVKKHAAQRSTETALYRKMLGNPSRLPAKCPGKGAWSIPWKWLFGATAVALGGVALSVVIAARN

How the values were obtained:
[1] = molecular target: T1, RNF25 (human (endogenous in DLD-1)) (UniProt Q96BH1); experiment: co-IP; endogenous proteins in DLD-1 cells, IP-RNF25 and IP-FKBP8 with immunoblot (Pierce Co-Immunoprecipitation Kit); cells treated with 20 µM MG-132 for 8 h before harvesting; also in cells with NC or sh1-Circ (circSATB1 knock-down, less of the complex)
T1 sequence: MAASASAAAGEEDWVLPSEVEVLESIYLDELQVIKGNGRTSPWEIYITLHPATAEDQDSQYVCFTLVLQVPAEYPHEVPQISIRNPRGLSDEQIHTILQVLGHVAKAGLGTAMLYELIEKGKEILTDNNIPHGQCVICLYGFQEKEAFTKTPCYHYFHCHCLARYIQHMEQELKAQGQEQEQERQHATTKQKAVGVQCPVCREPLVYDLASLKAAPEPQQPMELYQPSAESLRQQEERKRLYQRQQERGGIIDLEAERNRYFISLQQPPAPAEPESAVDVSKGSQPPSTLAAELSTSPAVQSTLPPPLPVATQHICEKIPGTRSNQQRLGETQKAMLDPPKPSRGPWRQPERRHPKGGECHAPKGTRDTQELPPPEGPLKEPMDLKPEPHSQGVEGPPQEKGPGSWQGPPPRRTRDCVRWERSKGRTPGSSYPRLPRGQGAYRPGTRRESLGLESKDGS

His-RNF25 = molecular target: T2, His-RNF25 (UniProt Q96BH1); experiment: co-IP; HEK-293T cells transfected with His-RNF25 and Flag-FKBP8, with circSATB1 or not (more of the complex with circSATB1); IP-His and IP-Flag with immunoblot; cells treated with 20 µM MG-132 for 8 h before harvesting
T2 sequence: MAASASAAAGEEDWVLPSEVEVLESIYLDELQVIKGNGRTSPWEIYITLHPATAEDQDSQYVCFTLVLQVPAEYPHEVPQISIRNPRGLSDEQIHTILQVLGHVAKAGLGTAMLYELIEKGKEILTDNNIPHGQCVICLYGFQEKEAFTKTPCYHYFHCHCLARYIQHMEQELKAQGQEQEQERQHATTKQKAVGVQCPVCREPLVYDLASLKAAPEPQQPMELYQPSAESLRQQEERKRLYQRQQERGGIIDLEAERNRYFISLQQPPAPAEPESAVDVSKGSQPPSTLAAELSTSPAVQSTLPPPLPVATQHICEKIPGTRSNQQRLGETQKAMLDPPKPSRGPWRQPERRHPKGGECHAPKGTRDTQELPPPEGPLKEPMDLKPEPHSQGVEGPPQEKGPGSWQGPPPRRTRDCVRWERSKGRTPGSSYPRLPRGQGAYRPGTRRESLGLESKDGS

[2] = molecular target: FKBP8 protein (human (endogenous in DLD-1)) (UniProt Q14318); experiment: co-IP; endogenous proteins in DLD-1 cells, IP-RNF25 and IP-FKBP8 with immunoblot (Pierce Co-Immunoprecipitation Kit); cells treated with 20 µM MG-132 for 8 h before harvesting; also in cells with NC or sh1-Circ (circSATB1 knock-down, less of the complex)
Flag-FKBP8 = Flag-FKBP8 (UniProt Q14318); experiment: co-IP; HEK-293T cells transfected with His-RNF25 and Flag-FKBP8, with circSATB1 or not (more of the complex with circSATB1); IP-His and IP-Flag with immunoblot; cells treated with 20 µM MG-132 for 8 h before harvesting

binding (His-RNF25): binds
Molecule: Flag-FKBP8 (from UniProt Q14318 1-412)

binding (Flag-FKBP8): binds
B2: His-RNF25 (enzyme, UniProt Q96BH1 1-459)
chain: MAASASAAAGEEDWVLPSEVEVLESIYLDELQVIKGNGRTSPWEIYITLHPATAEDQDSQYVCFTLVLQVPAEYPHEVPQISIRNPRGLSDEQIHTILQVLGHVAKAGLGTAMLYELIEKGKEILTDNNIPHGQCVICLYGFQEKEAFTKTPCYHYFHCHCLARYIQHMEQELKAQGQEQEQERQHATTKQKAVGVQCPVCREPLVYDLASLKAAPEPQQPMELYQPSAESLRQQEERKRLYQRQQERGGIIDLEAERNRYFISLQQPPAPAEPESAVDVSKGSQPPSTLAAELSTSPAVQSTLPPPLPVATQHICEKIPGTRSNQQRLGETQKAMLDPPKPSRGPWRQPERRHPKGGECHAPKGTRDTQELPPPEGPLKEPMDLKPEPHSQGVEGPPQEKGPGSWQGPPPRRTRDCVRWERSKGRTPGSSYPRLPRGQGAYRPGTRRESLGLESKDGS

The next lines start with the molecule.

Molecule: FKBP8 protein (from UniProt Q14318 1-412)
binding [1]: binds

B1: RNF25 (enzyme, UniProt Q96BH1 1-459)
chain: MAASASAAAGEEDWVLPSEVEVLESIYLDELQVIKGNGRTSPWEIYITLHPATAEDQDSQYVCFTLVLQVPAEYPHEVPQISIRNPRGLSDEQIHTILQVLGHVAKAGLGTAMLYELIEKGKEILTDNNIPHGQCVICLYGFQEKEAFTKTPCYHYFHCHCLARYIQHMEQELKAQGQEQEQERQHATTKQKAVGVQCPVCREPLVYDLASLKAAPEPQQPMELYQPSAESLRQQEERKRLYQRQQERGGIIDLEAERNRYFISLQQPPAPAEPESAVDVSKGSQPPSTLAAELSTSPAVQSTLPPPLPVATQHICEKIPGTRSNQQRLGETQKAMLDPPKPSRGPWRQPERRHPKGGECHAPKGTRDTQELPPPEGPLKEPMDLKPEPHSQGVEGPPQEKGPGSWQGPPPRRTRDCVRWERSKGRTPGSSYPRLPRGQGAYRPGTRRESLGLESKDGS
binding [2]: binds
